Results: patent US20250108100A1, “C-TERMINAL FRAGMENT OF APOLIPOPROTEIN E AND APPLICATION THEREOF IN INHIBITING y-SECRETASE ACTIVITY” (SYNPHATEC (SHANGHAI) BIOPHARMACEUTICAL TECHNOLOGY CO., LTD., priority 2022, published 2025)

Assays:
[1] = system: HEK 293T cells; assay: Immunofluorescence of ApoE from culture medium in HEK 293T cells; format: cell-based, human; details: immunofluorescence after co-incubation
[2] = system: primary cultured neurons; assay: Immunofluorescence of ApoE from culture medium in primary cultured neurons; format: cell-based, mouse; details: immunofluorescence after co-incubation

B1: ApoE CT: C-terminal fragment of ApoE, positions 216-299 of SEQ ID NO: 12; SEQ ID NO: 33 (protein)
chain: ARMEEMGSRTRDRLDEVKEQVAEVRAKLEEQAQQIRLQAEAFQARLKSWFEPLVEDMQRQWAGLVEKVQAAVGTSAAPVPSDNH
- protein from culture medium detected inside cells [1]: mainly adhered to the cell surface and hardly entered the cell; also recorded: largely could not be detected inside the cells; also recorded: mainly detected outside the cell membrane
- protein from culture medium detected inside neurons [2]: mainly adhered to the cell surface and hardly entered the cell; also recorded: largely could not be detected inside the primary cultured neurons; also recorded: mainly detected outside the cell membrane

Entries after “also recorded” stand apart in the source; their conditions may differ.
